Data published in PubChem BioAssay AID330 (DTP/NCI, 2004).
The list shows only some results of the screen, not a fair sample: it is rich in T/C values a quarter to a half above the control, in often repeated tests (any T/C) and in doses without a T/C. Other doses and runs of a compound stand elsewhere. T/C gives the treated animals as a percentage of the vehicle group. Some doses have a count of surviving animals in place of a T/C: the source files T/C as zero there, which appears to mark a toxic dose or a test without result, not a measured value. Some survivor counts are full or nearly so, which does not show that the dose was tolerated: survival well below the control is almost never listed, so the zero probably covers shortened survival too. Counts of survivors are from the toxicity check (mostly the fifth day) where no day follows; animals may have died later. Schedules are NCI's codes, taken here to give the interval after Q, in days (D) or hours (H), and the number of doses after X. Some structures stand for samples that the source files as different forms (salt, stereo form or complex); doses refer to the form tested. Some entries were tested several times; the results are listed from low to high. For survival time, this PubChem deposit counts one and a half times the control or more as active, and values a quarter to a half above the control carry no call in these data; other NCI protocols may use other cut-offs. Some T/C values carry the count of animals alive at the toxicity check (mostly the fifth day); where none is given, no animal had died by that day. Additions like (4×) count equal records among those shown.

Tested on: P388 leukemia ip, CD2F1 mice, survival T/C
Assay: NCI In Vivo Anticancer Drug Screen. Data for tumor model P388 Leukemia (intraperitoneal) in CD2F1 (CDF1) mice
Details: T/C endpoint: median survival time, higher T/C = longer survival
[1] = dose: 32.0 mg/kg/injection, schedule: Q01DX009 (ip), vehicle: distilled water + Tween-80
[2] = dose: 50.0 mg/kg/injection, schedule: Q01DX001 (ip), vehicle: Klucel (hydroxypropylcellulose) (HPC)
[3] = dose: 60.0 mg/kg/injection, schedule: Q04DX003 (ip), vehicle: Klucel (hydroxypropylcellulose) (HPC)

Q: For `COc1cc2c[n+](C)c3c4cc5c(cc4ccc3c2cc1OC)OCO5`, which survivor count (dose: 20.0 mg/kg/injection, schedule: Q01DX009 (ip), vehicle: water) is on record?
A: 5 of 6 and 6 of 6

Q: And the T/C (dose: 25.92 mg/kg/injection, schedule: Q04DX003 (ip), vehicle: distilled water + Tween-80)?
A: 130 % of control

Q: What about the T/C (dose: 30.0 mg/kg/injection, schedule: Q04DX002 (ip), vehicle: Klucel (hydroxypropylcellulose) (HPC), evaluated on day 30) of the same compound?
A: 100, 117, 126 [5 of 6 alive], 128, 132, 133, 135, 137, 138, 139, 140, 141, 142, 147 (2×), 149, 151, 153, 154, 158, 159 (3×), 160 (3×), 164, 165, 169, 173, 174 % of control

Q: And the T/C (dose: 30.0 mg/kg/injection, schedule: Q04DX002 (ip), vehicle: Klucel (hydroxypropylcellulose) (HPC), evaluated on day 35)?
A: 128, 136, 149 % of control

Q: And the survivor count (dose: 30.0 mg/kg/injection, schedule: Q04DX002 (ip), vehicle: Klucel (hydroxypropylcellulose) (HPC))?
A: 3 of 3 and 6 of 6

Q: What about the T/C (dose: 30.0 mg/kg/injection, schedule: Q04DX003 (ip), vehicle: Klucel (hydroxypropylcellulose) (HPC)) of the same compound?
A: 129, 135, 138, 141 (2×), 143 (2×), 144, 146 (2×), 147, 148 (2×), 151 (2×), 152 (2×), 153 (2×), 154, 155 (2×), 156, 158, 159, 160, 161, 165, 168, 171, 175, 176, 182, 186 % of control

Q: What about the T/C (dose: 32.0 mg/kg/injection, schedule: Q01DX001 (ip), vehicle: saline with Tween-80) of the same compound?
A: 138 % of control

Q: What about the T/C (dose: 32.0 mg/kg/injection, schedule: Q01DX005 (ip), vehicle: distilled water + Tween-80) of the same compound?
A: 139 % of control

Q: And the T/C [1]?
A: 119, 136, 172 % of control [4 of 6 alive]

Q: And the survivor count [1]?
A: 4 of 6 and 5 of 6

Q: What about the survivor count (dose: 32.0 mg/kg/injection, schedule: Q01DX009 (ip), vehicle: water) of the same compound?
A: 7 of 10

Q: And the survivor count (dose: 32.0 mg/kg/injection, schedule: Q01DX009 (sc), vehicle: water)?
A: 10 of 10

Q: What about the survivor count (dose: 32.0 mg/kg/injection, schedule: Q03HX008 (ip), vehicle: water) of the same compound?
A: 0 of 10

Q: What about the T/C (dose: 32.0 mg/kg/injection, schedule: Q04DX003 (ip), vehicle: other) of the same compound?
A: 149 % of control

Q: What about the T/C (dose: 32.0 mg/kg/injection, schedule: Q04DX003 (ip), vehicle: saline with Tween-80) of the same compound?
A: 138 % of control

Q: And the T/C (dose: 32.0 mg/kg/injection, schedule: Q08DX002 (ip), vehicle: saline with Tween-80)?
A: 144 % of control

Q: And the T/C (dose: 40.0 mg/kg/injection, schedule: Q01DX005 (ip), vehicle: Klucel (hydroxypropylcellulose) (HPC), evaluated on day 30)?
A: 89, 101, 102, 103 (2×), 108, 109, 114, 122, 123, 127, 132, 134, 135, 139, 141, 145, 146, 153, 155, 157, 162, 168 [4 of 6 alive], 169, 173, 176, 179 [5 of 6 alive], 189, 209 % of control

Q: What about the T/C (dose: 40.0 mg/kg/injection, schedule: Q01DX005 (ip), vehicle: Klucel (hydroxypropylcellulose) (HPC), evaluated on day 35) of the same compound?
A: 187 % of control

Q: And the survivor count (dose: 40.0 mg/kg/injection, schedule: Q01DX005 (ip), vehicle: Klucel (hydroxypropylcellulose) (HPC))?
A: 3 of 3 and 6 of 6

Q: And the T/C (dose: 40.0 mg/kg/injection, schedule: Q01DX009 (ip), vehicle: Klucel (hydroxypropylcellulose) (HPC), evaluated on day 30)?
A: 87, 88, 90 (2×), 91, 94, 96 (2×), 97 (2×), 102 (2×), 103, 106 (2×), 107 (2×), 108 (2×), 111 (2×), 116, 121, 127, 135, 141, 149, 151, 156, 171, 172 % of control

Q: What about the T/C (dose: 40.0 mg/kg/injection, schedule: Q01DX009 (ip), vehicle: Klucel (hydroxypropylcellulose) (HPC), evaluated on day 35) of the same compound?
A: 110 and 126 % of control

Q: And the survivor count (dose: 40.0 mg/kg/injection, schedule: Q01DX009 (ip), vehicle: Klucel (hydroxypropylcellulose) (HPC))?
A: 4 of 6 and 3 of 3

Q: And the survivor count (dose: 40.0 mg/kg/injection, schedule: Q01DX009 (ip), vehicle: water)?
A: 3 of 6, 5 of 8, 4 of 6, 5 of 6, 7 of 8, 6 of 6

Q: And the T/C (dose: 43.2 mg/kg/injection, schedule: Q04DX003 (ip), vehicle: distilled water + Tween-80)?
A: 130 % of control

Q: And the T/C [2]?
A: 108, 110, 117, 130, 133, 136, 138 (2×), 138 [5 of 6 alive], 139 (2×), 140, 142, 145, 147, 150 (3×), 151 (2×), 152, 153 (3×), 158, 160, 162, 166, 167, 168, 172 % of control

Q: And the survivor count [2]?
A: 6 of 6

Q: And the survivor count (dose: 50.0 mg/kg/injection, schedule: Q01DX009 (ip), vehicle: saline with Tween-80)?
A: 6 of 6

Q: What about the survivor count (dose: 50.0 mg/kg/injection, schedule: Q01DX009 (ip), vehicle: water) of the same compound?
A: 2 of 10 and 3 of 10

Q: And the T/C (dose: 50.0 mg/kg/injection, schedule: Q04DX002 (ip), vehicle: Klucel (hydroxypropylcellulose) (HPC))?
A: 144 and 149 % of control

Q: What about the T/C (dose: 60.0 mg/kg/injection, schedule: Q04DX002 (ip), vehicle: Klucel (hydroxypropylcellulose) (HPC), evaluated on day 30) of the same compound?
A: 103, 108, 130, 137, 142, 145, 146, 148, 149, 150, 151, 155 (3×), 157, 157 [2 of 3 alive], 159, 161, 163, 165 (2×), 169 (2×), 174, 176, 178, 179, 195, 200, 221 % of control

Q: And the T/C (dose: 60.0 mg/kg/injection, schedule: Q04DX002 (ip), vehicle: Klucel (hydroxypropylcellulose) (HPC), evaluated on day 35)?
A: 157, 166, 186 % of control

Q: And the survivor count (dose: 60.0 mg/kg/injection, schedule: Q04DX002 (ip), vehicle: Klucel (hydroxypropylcellulose) (HPC))?
A: 3 of 6, 3 of 3, 6 of 6

Q: What about the T/C [3] of the same compound?
A: 122 [2 of 3 alive], 128, 131, 141, 142 (2×), 143, 145, 146, 147, 148, 152, 154 (3×), 158, 160, 161, 162 (2×), 163, 172, 174, 175, 176, 179, 182, 185, 187 (2×), 189, 195, 199 % of control

Q: And the survivor count [3]?
A: 3 of 3

Q: What about the T/C (dose: 64.0 mg/kg/injection, schedule: Q01DX001 (ip), vehicle: saline with Tween-80) of the same compound?
A: 138 % of control

Q: What about the survivor count (dose: 64.0 mg/kg/injection, schedule: Q01DX005 (ip), vehicle: distilled water + Tween-80) of the same compound?
A: 0 of 5

Q: What about the survivor count (dose: 64.0 mg/kg/injection, schedule: Q01DX009 (ip), vehicle: saline with Tween-80) of the same compound?
A: 10 of 10
